The experiment in a line: qHTS Assay for Lipid Storage Modulators in Drosophila S3 Cells.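 On cell number change: cells counted by Cell Tracker Red CMTPX staining in the red channel.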 Particulars: BODIPY lipid droplet fluorescence, 18-24 h; for cell number change: measured here: cell count max response, cells fed with added oleic acid. A digest of the protocol: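 Laser-scanning cytometry quantifies lipid droplet accumulation (500–530 nm total intensity; droplet/cell object ratio) in oleic acid-fed (400 uM added) Drosophila S3 cells treated with a concentration series. 20 uM Triacsin C defined 100% inhibition.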
On the technique in general: qHTS replaces the single test concentration by a dilution series.

Setting [1] is: measured here: lipid fluorescence (Fed channel) AC50, cells fed with added oleic acid.
Where [2] appears, read: measured here: cell number channel AC50, cells fed with added oleic acid.

This is one part of the list. Shown are side measurements of this screen, not its main read-out; they come without a call. The list favours compounds with an active or inconclusive main result. Potencies come from curve fits of mixed quality, noted in brackets.

As to `Cc1csc(SCC(=O)Nc2ccccc2)n1`, the cell number change was 14.5%.

For the compound `Fc1ccc(-c2csc(Nc3ccccn3)n2)cc1`, the AC50 under setting [1] was 4.11 µM [rising, single point].

In the case of `CCCn1c(SCC(=O)NC)nnc1C(C)C`, the cell number change is 13.6%. The AC50 under setting [1] is 1.46 µM [rising, partial curve].

On to `CCCSC(=S)c1c(C)[nH]n(-c2ccccc2)c1=O`, for which the cell number change was -20%. In addition, the AC50 under setting [1] is 10.3 µM [falling, partial curve].

With `Cc1cc(C)n2[nH]c(=O)c(N=Nc3ccc(S(N)(=O)=O)cc3)c2n1`, the cell number change is -9.24%. Under setting [1], the AC50 is 29.1 µM [falling, single point].

Turning to `Cc1c(CC(=O)O)c(=O)oc2c(C)c3occ(-c4ccc(F)cc4)c3cc12`, the half-maximal activity concentration (AC50) under setting [1] was 29.1 µM [rising, single point].

In the case of `COc1cc2c(cc1OC)CN(CC(=O)Nc1ccc(C)c(S(=O)(=O)N3CCOCC3)c1)CC2`, the cell number change turned out to be 24.5%. For the same compound, the AC50 under setting [2] was 0.82 µM [rising, partial curve, poor fit]. The concentration at half-maximal activity (AC50) under setting [1] was 18.4 µM [falling, single point].

Take `CCOc1ccc(NC(=O)/C(=C\c2ccc(OC(C)=O)c(OC)c2)NC(C)=O)cc1`: the cell number change is -4.04%. For the same compound, the half-maximal activity concentration (AC50) under setting [1] was 29.1 µM [rising, single point].

Take `CC12CC(NC(=O)N1c1cccc(C(=O)N3CCCCC3)c1)c1ccccc1O2` (stereo unspecified): the cell number change is -31.7%. Under setting [2], the concentration at half-maximal activity (AC50) was 25.9 µM [falling, single point].

Turning to `CCCn1c(SCC(=O)NCc2ccccc2)nnc1-c1ccncc1`, the cell number change was determined as 8.09%.

On to `NC(=O)COC(=O)c1oc2ccccc2c1CSc1ccc(Cl)cc1`, for which the cell number change was -25.7%. Also, under setting [1], the concentration at half-maximal activity (AC50) was 7.31 µM [rising, partial curve].

As for `CCc1nnc(NC(=O)CSc2nc3c(cc2C#N)CCC3)s1`, the cell number change was -3.24%. For the same compound, the concentration at half-maximal activity (AC50) under setting [1] was 1.46 µM [rising, partial curve].

In the case of `O=C(/C(=C/c1ccc(Cl)cc1)c1nc2ccccc2[nH]1)c1cccs1`, the cell number change was -23.5%. Also, the AC50 under setting [1] was 29.1 µM [falling, single point].

With `CCOC(=O)C1CCN(C(=O)N(C)C)CC1`, the AC50 under setting [2] is 6.51 µM [falling, single point].

Take `Nc1nc2ccc(S(=O)(=O)N3CCCCC3)cc2s1`: the cell number change is -36.8%. Under setting [2], the AC50 was 0.00411 µM [falling, full curve, poor fit]. Moreover, the AC50 under setting [1] was 18.4 µM [falling, partial curve].

Consider `CS(=O)(=O)N(CCc1ccccc1)CC(=O)Nc1ccc2c(c1)OCO2`, for which the cell number change was -0.247%. Also, the AC50 under setting [1] was 0.651 µM [rising, single point].

Turning to `NC(=O)COC(=O)c1cc(=O)[nH]c2ccc(S(=O)(=O)Nc3ccc(F)cc3)cc12`, the cell number change is 5.83%.

For `O=C(N/N=C/c1ccccc1F)c1ccccc1OCc1ccccc1`, the cell number change is -30.3%. In addition, the AC50 under setting [2] was 1.46 µM [falling, full curve, poor fit].

Take `Cc1cc(NC(=O)CSCc2ccc([N+](=O)[O-])cc2)no1`: the cell number change stood at 1.54%. Also, under setting [1], the concentration at half-maximal activity (AC50) is 0.92 µM [rising, full curve, poor fit].

With `CCC(c1nnc(SCC(=O)Nc2ccc(NC(C)=O)cc2)n1Cc1ccccc1)N(C)C` (stereo unspecified), the cell number change was -13.2%. The AC50 under setting [1] was 0.00461 µM [falling, full curve, poor fit].

On to `O=C(CSc1nc2ccccc2o1)NCc1ccc2c(c1)OCO2`, for which, under setting [1], the AC50 was 1.64 µM [rising, partial curve].

`Cc1ccc(CNS(=O)(=O)c2c(C)[nH]c(C)c2C(=O)N2CCCCC2)cc1`: the cell number change stood at 54.1%. Under setting [2], the concentration at half-maximal activity (AC50) is 29.1 µM [rising, single point]. The AC50 under setting [1] is 0.116 µM [rising, full curve, poor fit].

Consider `CCCCCC1CC(CC(C)C(=O)Nc2nncs2)C(=O)O1` (stereo unspecified), for which the cell number change is -23.4%. Further, the AC50 under setting [1] is 29.1 µM [falling, single point].

On to `C/C(=N\O)C1/C(=N/O)CC2C1C2(C)C` (stereo unspecified), for which the cell number change was -49.5%. Moreover, the AC50 under setting [2] is 20.6 µM [falling, partial curve, poor fit].

As to `CC(C(=O)OCC(=O)Nc1cccc(S(=O)(=O)N2CCOCC2)c1)N1C(=O)c2ccccc2C1=O` (stereo unspecified), the cell number change is -24.1%. Further, under setting [1], the AC50 is 29.1 µM [falling, single point].

Take `CCCNC(=O)c1cn(CC)c2cc(N3CCN(C(=O)c4ccco4)CC3)c(F)cc2c1=O`: under setting [1], the AC50 is 8.2 µM [falling, partial curve].

On to `O=c1[nH]c2ccccc2n1CCC1CCCCC1`, for which the cell number change is -93.9%. Further, under setting [2], the AC50 was 32.6 µM [falling, partial curve].

Consider `CCCOc1cccc(C(=O)Nc2cc(NC(=O)c3ccco3)ccc2OC)c1`, for which the AC50 under setting [2] was 0.00411 µM [rising, full curve, poor fit].

For the compound `OC(COc1ccccc1)CN1C2=NCCCN2c2ccccc21` (stereo unspecified), the cell number change came to 20.6%. Besides, the half-maximal activity concentration (AC50) under setting [1] was 29.1 µM [rising, single point].

Consider `CSCCC(NC(=O)COc1ccccc1)C(=O)N1CCN(c2ccccc2Cl)CC1` (stereo unspecified), for which the cell number change turned out to be 40.8%. Under setting [2], the AC50 was 0.00651 µM [rising, full curve, poor fit]. Also, the concentration at half-maximal activity (AC50) under setting [1] is 2.91 µM [rising, partial curve].

Take `CCOc1ccc(C(=O)OC(C)CN2CCCCC2)cc1` (stereo unspecified): the cell number change came out at 21.1%. Under setting [2], the AC50 is 5.17 µM [rising, partial curve, poor fit].

On to `CC(C)(C)n1cc(S(=O)(=O)c2ccccc2)[nH]c1=O`, for which the cell number change was 21%. Also, under setting [1], the AC50 was 0.0231 µM [falling, full curve, poor fit].

Regarding `Cc1cc(C)nc(N/N=C/c2ccco2)n1`, the cell number change amounted to 24.4%. The AC50 under setting [1] is 29.1 µM [falling, single point].

In the case of `O=C(Oc1ccc(/C=N/NC(=O)c2ccccc2O)cc1)c1ccccc1`, the cell number change was 22.7%. The AC50 under setting [2] is 6.51 µM [falling, single point].

With `COc1cccc(NC(=O)c2ccc(S(=O)(=O)NCc3cccnc3)cc2)c1`, the cell number change is -15.4%. Further, the AC50 under setting [1] is 1.16 µM [rising, full curve].

Regarding `CCCn1c(CN2CCN(C(=O)OCC)CC2)nc2cc(NC(=O)CC)ccc21`, the cell number change is -9.01%. In addition, the AC50 under setting [1] was 4.61 µM [falling, partial curve, poor fit].

Turning to `CCOC(=O)c1ccc2c(c1)NCc1cccc(OC)c1O2`, the cell number change was -1.83%. In addition, under setting [1], the half-maximal activity concentration (AC50) was 0.116 µM [falling, full curve, poor fit].

`C/C(CC(=O)Nc1cc(C)ccn1)=N\NC(=O)C(=O)Nc1cccc(C)c1`: the cell number change is -4.75%. For the same compound, under setting [1], the half-maximal activity concentration (AC50) was 6.51 µM [rising, single point].

Turning to `O=C1NC2=C(C(=O)CCC2)C(c2ccc3ncccc3c2)N1` (stereo unspecified), the cell number change is -13.4%. Under setting [2], the half-maximal activity concentration (AC50) is 0.231 µM [falling, full curve, poor fit]. The half-maximal activity concentration (AC50) under setting [1] is 8.2 µM [falling, partial curve].

With `O=C(Nc1nncs1)Oc1ccccc1`, the cell number change was -62.2%. Moreover, under setting [1], the AC50 is 29.1 µM [falling, single point].

On to `CCOn1c(=O)c(-c2cccs2)[n+]([O-])c2ccccc21`, for which the cell number change was 82.5%. Further, the half-maximal activity concentration (AC50) under setting [2] was 6.51 µM [rising, partial curve]. The concentration at half-maximal activity (AC50) under setting [1] is 18.4 µM [rising, partial curve].

For the compound `O=C(O)CCCNc1cc(N2CCN(C(=O)c3ccco3)CC2)c2noc3c2c1C(=O)c1ccccc1-3`, the cell number change was -5.56%. For the same compound, the AC50 under setting [1] was 18.4 µM [falling, single point].

Turning to `O=C(NCc1ccc2c(c1)OCO2)Oc1ccccc1`, the cell number change was -12%. Moreover, under setting [2], the AC50 is 0.00517 µM [falling, full curve, poor fit].

`O=C(Nc1ccccc1)C1=C(c2ccccc2)S(=O)(=O)CCS1(=O)=O`: the cell number change was -47.5%. Besides, the AC50 under setting [2] was 0.461 µM [falling, partial curve, poor fit]. For the same compound, the AC50 under setting [1] was 25.9 µM [falling, partial curve, poor fit].

Take `Cc1ccc(C(=O)Nc2cc(Cl)ccc2N2CCCCC2)s1`: the AC50 by setting is: under setting [2], 4.11 µM [rising, partial curve]; under setting [1], 29.1 µM [rising, single point].

As to `Clc1ccccc1Cn1c(/C=C/c2ccco2)nc2ccccc21`, the cell number change stood at 66.7%. Besides, the AC50 under setting [2] is 2.91 µM [rising, full curve].

Turning to `CCCCc1cc(=O)oc2cc(OCC(=O)N3CCOCC3)ccc12`, the cell number change is -7.89%.

Turning to `Cc1nn2c(N)c(C#N)cnc2c1-c1ccccc1`, the cell number change was -34.4%. In addition, the concentration at half-maximal activity (AC50) under setting [2] was 29.1 µM [falling, single point]. For the same compound, under setting [1], the AC50 is 32.6 µM [falling, single point].

Turning to `COc1ccc(-n2c(Cc3cc(=O)[nH]c(=O)[nH]3)nnc2SCC(=O)N2CCCC2)cc1`, the cell number change is -0.759%. The AC50 under setting [1] was 4.11 µM [falling, full curve].

With `Cc1cc(C2N=C(N)Nc3nc4ccccc4n32)c(C)n1-c1ccccc1Cl` (stereo unspecified), the cell number change is -92.8%. Under setting [2], the half-maximal activity concentration (AC50) was 29.1 µM [falling, single point]. Under setting [1], the AC50 is 18.4 µM [falling, partial curve].

For `C=CCc1cccc(/C=N/NC(=O)CNc2cccc3ccccc23)c1O`, the cell number change was -62.4%. For the same compound, under setting [2], the concentration at half-maximal activity (AC50) was 20.6 µM [falling, single point].

In the case of `CCn1c(CN2CCOCC2)nnc1SCC(=O)Nc1ccccc1Cl`, the cell number change stood at 15.2%. For the same compound, the concentration at half-maximal activity (AC50) under setting [1] was 0.326 µM [rising, partial curve, poor fit].

For the compound `O=C1CCCN1c1ccc(S(=O)(=O)N2CCC(c3ccccc3)CC2)cc1`, the cell number change was 50%. For the same compound, under setting [2], the concentration at half-maximal activity (AC50) was 0.731 µM [rising, full curve, poor fit]. Also, the AC50 under setting [1] is 8.2 µM [rising, partial curve].

As for `CCOC(=O)c1sc(NC(=O)c2cc(-c3ccccc3C)nc3ccccc23)c(C#N)c1C`, the cell number change was determined as 71%. Moreover, under setting [2], the AC50 is 0.731 µM [rising, partial curve, poor fit]. Under setting [1], the AC50 was 0.58 µM [rising, partial curve].

As to `COc1ccc(-c2cc(C(F)(F)F)nc(SCCC(=O)N3CCOCC3)n2)cc1`, the cell number change was -41.8%. For the same compound, the AC50 under setting [2] is 6.51 µM [falling, full curve].

As for `CC(C)(C)OC(=O)N1CCC[C@H]1c1nnc(SCc2ccc(Cl)cc2Cl)o1`, the cell number change came out at 80.7%. For the same compound, the AC50 under setting [2] is 29.1 µM [rising, single point]. Besides, the half-maximal activity concentration (AC50) under setting [1] was 29.1 µM [rising, single point].

As for `COc1ccc(C(=O)CN2C(=O)NC3(CCc4ccccc43)C2=O)c(OC)c1` (stereo unspecified), the cell number change came out at 3.33%. Besides, the concentration at half-maximal activity (AC50) under setting [2] is 0.231 µM [rising, full curve, poor fit].

The AC50 is the midpoint of the concentration-response curve, whichever way the signal moves. A higher AC50 goes with activity only at high concentration.

Values taken from PubChem BioAssay AID2685 (National Center for Advancing Translational Sciences (NCATS), 2010).
